Laboratory results taken from patent US20190086391A1, “METHOD AND SYSTEM FOR CONTINUOUS BIOSENSING” (Yissum Research Development Company of the Hebrew …, priority 2016, published 2019).
Entries after “also recorded” stand apart in the source; their conditions may differ. At least one compound was matched to its structure with a doubt left.

How the values were obtained:
isolated mitochondria = assay: Oxygen consumption rate of ADP-stimulated isolated mitochondria; format: biochemical; details: 50 μM injected after ADP; no enzymatic activation
Description: Mitochondria were isolated using a Mitochondria Isolation Kit (Abcam, UK) per manufacturer instructions. Briefly, 10^7 cells were collected and ruptured using 30 strokes in a pre-cooled dounce homogenizer. Homogenate was centrifuged twice at 1,000×g for 10 minutes at 4° C. to remove debris, and finally at 12,000×g for 15 minutes at 4° C. Pellet containing the isolated mitochondria was resuspended in a protease inhibitor cocktail. Protein concentration was determined using Bradford. 20 μg of mitochondrial protein per well was plated in gelatin-coated SeaHorse XFp cell culture miniplate and centrifuged at 3,000×g for 20 minutes at 4° C. in mitochondrial assay solution (MAS) as previously described (29). Oxygen consumption rate (OCR) was measured by the XFp Extracellular Flux Analyzer (Seahorse Biosciences, USA). Mitochondrial activity was profiled by successive injections of ADP (Sigma-Aldrich, Israel) and 50 μM of troglitazone, rotenone or DMSO control.

HepG2/C3A spheroids = assay: Offline glutamine uptake in bioreactor perfusate; format: cell-based, human; details: 50 μM
Description: Glutamine concentration was determined using glutamine and glutamate determination kit (Sigma-Aldrich). Bioreactors containing HepG2/C3A spheroids were set up as described in the main text and perfused at 2 μl/min. Perfusate samples were collected for 60 minutes for a total of 120 μl per sample. Glutamine was quantified according to manufacturer directions.

HepG2/C3A cells [1] = assay: Quantification of ATP/ADP ratio; format: cell-based, human; details: 50 μM
Description: Intracellular ATP and ADP quantification was carried out using Abeam ADP/ATP Assay Kit (#ab65313), according to manufacturer's instructions. […] Cells were incubated in nucleotide releasing buffer for 5 min at room temperature, with gentle shaking. Background bioluminescence reading of the reaction mix was taken for calibration, followed by 2 min incubation of 50 μl sample solution in each reaction well, and a bioluminescence reading to measure cellular ATP content. ADP converting enzyme was then added, as instructed, following incubation of 2 min at room temperature to measure total ADP+ATP.

HepG2/C3A cells [2] = assay: Seahorse glutamine oxidation assay; format: cell-based, human; details: 50 μM, static conditions
Description: HepG2/C3A cells were plated in gelatin-coated XFp cell culture miniplates and cultured for 24 hours. Subsequently, cultures were treated with medium containing 50 μM troglitazone for 6 hours, 50 μM rotenone for 3 hours, or vehicle control prior to initiation of assay. Glutamine oxidation assay was conducted per manufacturer instructions. Briefly, cells were incubated in unbuffered XF Base Medium supplemented with 2 mM Glutamine, 1 mM sodium pyruvate, and 10 mM glucose (pH 7.4) for 1 hour at 37° C. in a non-CO2 incubator. Glutamine oxidation was profiled by successive injections of 3 μM BPTES, an allosteric inhibitor of glutaminase (GLS1), and a mixture of 4 μM etomoxir, a carnitine palmitoyl-transferase 1A (CPT1A) inhibitor and 2 μM UK5099 a mitochondrial pyruvate carrier inhibitor, blocking fatty acid oxidation and […], respectively. The decrease in baseline OCR due to BPTES treatment was defined as the rate of glutaminolysis. Data are presented normalized to 10^6 cells as determined by Hoechst DNA content assay.

HepG2/C3A cells [3] = assay: JC-1 mitochondrial membrane potential staining; format: cell-based, human; details: 50 μM; rotenone after 3 hours, troglitazone along 6 hours
Description: JC-1 cell permeable dye was purchased from Life Technologies (New York, N.Y.). HepG2/C3A cells were incubated with 50 μM of troglitazone or rotenone for varying durations. To evaluate mitochondrial membrane potential at each time point, cells were incubated with 5 μM JC-1 dye for 30 min, washed with PBS and imaged by confocal microscopy on a LSM700 (Zeiss, Germany). […] Consequently, mitochondrial depolarization is quantified by dividing red over green fluorescence intensity.

HepG2/C3A cells [4] = assay: Real-time oxygen uptake in perfused microwell bioreactor; format: cell-based, human
Description: PDMS microwell inserts were sterilized with 70% EtOH and 30 min exposure to UV light prior to cell seeding. Cells were trypsinized, counted and centrifuged at 300×g for 5 min at 4° C. The pellet was then mixed with […] CPOx-50-RuP oxygen-sensing beads (Colibri Photonics, Germany) and resuspended in 100 μl of ice-cold solution of collagen type I (BD Biosciences, USA) for a final seeding density of 4×10^6 cells/ml. The PDMS microwell insert was placed on ice and coated with ice-cold collagen solution for 5 min to remove air bubbles. Then 100 μl of collagen type I suspension containing cells and oxygen-sensing beads was layered on top the wells and incubated for 10 min on ice. The low temperature prevented premature collagen polymerization and the induction of cellular stress response pathways. Afterwards, excess cell and microbead suspension was gently wiped off the microwell insert using a sterile glass coverslip leading to a concentration of 100,000 cells and 20 oxygen-sensing beads per well. Variance in cell density between individual wells and between bioreactors was less than 10% measured by DNA content. The inoculated microwell insert was then incubated for 5 min at 37° C. to polymerize the collagen. […] Bioreactors were then placed in a climate control chamber (Evotec, Germany) on an IX81 fluorescence microscope (Olympus, Japan). […]
Troglitazone (T2573), and rotenone (R8875) were purchased from Sigma-Aldrich (Schnelldorf, Germany) and diluted from H2O or DMSO stock concentration 1:1000 into HepG2/C3A culture medium. Exposure onset was calculated to within ±1 min based on volumetric flow rate, considering the length of the tubing and bioreactor volume.
Real-time oxygen measurements were performed optically using lifetime-based luminescencequenching as previously described (11). […] To overcome the superposition of in-phase background fluorescence that alters the phase of the detected signal, a 53.5 kHz and 31.3 kHz two-frequency phase modulation was used. […]

HepG2/C3A cells [5] = assay: Real-time amperometric glucose and lactate measurements in bioreactor outflow; format: cell-based, human; details: 50 μM
Description: Amperometric glucose and lactate sensors were purchased from BioSensor Technology (Berlin, Germany) and embedded in a CNC-fabricated PMMA flow-chamber with an inner volume of 26 μl. The sensors are based on the enzymatic reactions of glucose oxidase, with a linear range of 0.5 mM to 30 mM, and lactate oxidase, with a linear range of 0.5 mM to 20 mM. Both sensors produce H2O2 in amounts proportional to the measured metabolite, which is detected with platinum electrodes under polarized condition. The microfluidic controller (13) was programmed to open a microfluidic valve every hour, allowing a 40 μl medium sample to flow through the switchboard and into the sensors unit. Amperometric measurement lasted 200 seconds and was followed by automated perfusion of PBS washing solution, CAL 4+M calibration buffer (Eschweiler, Germany), and 4 seconds of air bubble acting as a diffusion barrier between samples. Reading was carried out on EmStat3 OEM embedded potentiostat (PalmSens, Netherlands) connected to the central computer.
Glucose uptake, oxygen uptake and lactate production rates were measured by calculating the change in metabolite concentration between the bioreactor in- and outflow, as function of perfusion rate and cell number as described above. Metabolic rates were calculated assuming negligible contribution to oxygen uptake by fatty acid oxidation and enzymatic activity. […]

HepG2/C3A cells [6] = assay: Seahorse Mitochondrial Stress Test (OCR, ECAR), static culture; format: cell-based, human; details: 50 μM, static conditions
Description: HepG2/C3A cells were plated in gelatin-coated SeaHorse XFp cell culture miniplates (Seahorse Bioscience, USA) and cultured for 24 hours. Subsequently, cultures were treated with medium containing 50 μM troglitazone for 6 hours, 50 μM rotenone for 3 hours, or vehicle control prior to initiation of assay. Mitochondrial Stress Test assay was conducted per manufacturer instructions (29). Briefly, cells were incubated in unbuffered XF Base Medium supplemented with 2 mM glutamine, 1 mM sodium pyruvate, and 10 mM glucose (pH 7.4) for 1 hour at 37° C. in a non-CO2 incubator. Basal oxygen consumption rate (OCR) was measured for 30 min, followed by injection of 1 μM oligomycin, a mitochondrial […] inhibitor that completely blocks oxidative phosphorylation. The decrease in OCR due to oligomycin treatment is defined as oxidative phosphorylation rate. 1 μM carbonyl cyanide-4 (trifluoromethoxy) phenylhydrazone (FCCP), an uncoupling agent, is added at 60 min to measure maximal mitochondrial activity followed by complete inhibition at 90 min using a mixture of 0.5 μM antimycin A and rotenone, mitochondrial Complex III and Complex I inhibitors. Basal extracellular acidification rates (ECAR) was measured for 30 min, in the presence of 10 mM glucose, followed by injection of 1 μM oligomycin. […] Data are presented normalized to […] cells as determined by Hoechst DNA content assay.

Cc1c(C)c2c(c(C)c1O)CCC(C)(COc1ccc(CC3SC(=O)NC3=O)cc1)O2 (centres unmarked) [troglitazone]
loss of OCR / inhibition of mitochondrial respiration in isolated mitochondria (isolated mitochondria): immediate; also recorded: directly inhibit mitochondrial respiration in minutes
glutamine uptake (outlet-inlet), in words (HepG2/C3A spheroids): increase was more muted
ATP/ADP ratio compared with vehicle (HepG2/C3A cells [1]): no significant difference; also recorded: normal
change in glutaminolysis (HepG2/C3A cells [2]): no significant changes
effect on mitochondrial membrane potential (MMP), in words (HepG2/C3A cells [3]): gradual increase
oxygen concentration compared with control (HepG2/C3A cells [4]; 50 μM): not significantly different from control
time within which most of the effect on oxygen uptake occurred (HepG2/C3A cells [4]; 350-2000 μM): ≤ 5 h
time to onset of mitochondrial damage, in words (HepG2/C3A cells [4]; dose-dependent): in minutes rather than hours
change in glucose uptake (HepG2/C3A cells [5]): relatively unchanged
exposure time after which the metabolic shift from oxidative phosphorylation to glycolysis occurred (HepG2/C3A cells [5]): 6 h
change in glycolysis (HepG2/C3A cells [6]): no significant changes
